For assay [1], the target named is T1, HoxI, diaphorase-associated subunit of the soluble [NiFe]-hydrogenase (SH) with NADPH activation site, N-terminally StrepII-tagged (Cupriavidus necator H16) (UniProt Q79IN9).
T1 sequence: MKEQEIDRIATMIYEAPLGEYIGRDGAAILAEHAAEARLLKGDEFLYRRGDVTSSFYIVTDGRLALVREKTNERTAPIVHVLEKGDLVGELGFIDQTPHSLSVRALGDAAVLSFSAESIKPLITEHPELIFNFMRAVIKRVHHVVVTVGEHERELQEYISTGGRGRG
The assay is described as follows: pull-down; Strep-Tactin Superflow affinity chromatography of the soluble extract of E. coli co-expressing the SH subunits (50 mM KPi pH 7.0, elution with 2.5 mM desthiobiotin), then Superdex 200 HR 10/300 gel filtration; SDS-PAGE; cells harvested 36-40 h after inoculation.

Amino acid sequences for entries named in this document (tags omitted).
UniProt P22317: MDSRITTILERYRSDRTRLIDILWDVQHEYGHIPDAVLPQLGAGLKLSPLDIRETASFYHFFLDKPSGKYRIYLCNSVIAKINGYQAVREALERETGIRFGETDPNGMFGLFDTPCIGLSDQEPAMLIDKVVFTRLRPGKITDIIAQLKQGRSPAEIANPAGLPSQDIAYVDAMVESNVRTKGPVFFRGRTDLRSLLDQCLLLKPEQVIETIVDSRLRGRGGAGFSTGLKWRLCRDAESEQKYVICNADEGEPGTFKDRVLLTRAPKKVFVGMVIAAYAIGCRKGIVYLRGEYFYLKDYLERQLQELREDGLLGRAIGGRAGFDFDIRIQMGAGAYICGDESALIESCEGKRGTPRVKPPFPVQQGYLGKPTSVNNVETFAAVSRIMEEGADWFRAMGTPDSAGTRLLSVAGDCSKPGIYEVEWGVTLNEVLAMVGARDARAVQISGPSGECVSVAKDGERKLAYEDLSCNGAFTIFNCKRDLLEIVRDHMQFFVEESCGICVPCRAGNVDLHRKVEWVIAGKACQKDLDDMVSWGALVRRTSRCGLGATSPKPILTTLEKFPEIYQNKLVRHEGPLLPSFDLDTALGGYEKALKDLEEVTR
UniProt P22319: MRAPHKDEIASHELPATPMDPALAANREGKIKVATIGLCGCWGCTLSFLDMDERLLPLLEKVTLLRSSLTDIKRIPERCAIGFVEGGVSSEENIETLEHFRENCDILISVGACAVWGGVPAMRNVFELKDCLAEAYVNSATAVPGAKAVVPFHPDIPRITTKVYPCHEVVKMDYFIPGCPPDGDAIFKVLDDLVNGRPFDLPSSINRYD
UniProt P22318: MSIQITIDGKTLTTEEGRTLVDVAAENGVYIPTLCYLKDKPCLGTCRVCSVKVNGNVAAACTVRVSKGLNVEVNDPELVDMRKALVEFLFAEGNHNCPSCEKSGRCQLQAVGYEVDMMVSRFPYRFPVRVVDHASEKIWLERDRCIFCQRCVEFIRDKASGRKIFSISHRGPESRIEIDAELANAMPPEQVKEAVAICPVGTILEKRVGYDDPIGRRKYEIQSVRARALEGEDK

Assay [2] addresses HoxF, diaphorase large subunit of the NAD+-reducing soluble [NiFe]-hydrogenase (SH), N-terminally StrepII-tagged (Cupriavidus necator H16) (UniProt P22317). The description is as above.
In assay [3] the target is T1, HoxI, diaphorase-associated subunit of the soluble [NiFe]-hydrogenase (SH) with NADPH activation site, N-terminally StrepII-tagged (Cupriavidus necator H16). The assay is described as follows: pull-down; as a1 with a 1 mL StrepTactin Superflow gravity flow column and Superdex 200 gel filtration, strain SH2F, cells harvested after 44 hours of cultivation; SDS-PAGE.
For assay [4] the target is unchanged. Briefly: pull-down; Strep-Tactin Superflow affinity chromatography of the soluble extract of E. coli co-expressing the SH subunits (50 mM KPi pH 7.0, elution with 2.5 mM desthiobiotin), then Superdex 200 HR 10/300 gel filtration; SDS-PAGE; cells harvested 36-40 h after inoculation. The source holds these as a separate data set.

Drawing on PMC3702609, this text covers binding for four molecules.

Results are given in words; binding and its absence hold for the method and conditions named. In cells and extracts the contact can be indirect. Some entries that bind do so weakly or less than the wild type. For some assays here: Sequences can lack the tags named with a protein.

On to “HoxY, hydrogenase small subunit of the soluble [NiFe]-hydrogenase (SH) (from UniProt P22319 1-209)”, for which the binding result in assay [1] and in assay [2] was “binds” each time.

As for “HoxF, diaphorase large subunit of the soluble [NiFe]-hydrogenase (SH), untagged (from UniProt P22317 1-602)”, the binding result in assay [1] and in assay [3] was “binds” throughout.

Turning to “HoxU, diaphorase small subunit of the soluble [NiFe]-hydrogenase (SH) (from UniProt P22318 1-234)”, the binding result in assay [1], in assay [2] and in assay [3] was “binds” each time.

B1: HoxI, diaphorase-associated subunit of the soluble [NiFe]-hydrogenase (SH) with NADPH activation site, N-terminally StrepII-tagged (protein, UniProt Q79IN9 1-167)
chain: MKEQEIDRIATMIYEAPLGEYIGRDGAAILAEHAAEARLLKGDEFLYRRGDVTSSFYIVTDGRLALVREKTNERTAPIVHVLEKGDLVGELGFIDQTPHSLSVRALGDAAVLSFSAESIKPLITEHPELIFNFMRAVIKRVHHVVVTVGEHERELQEYISTGGRGRG
In the case of B1, in assay [4], the binding result is listed as “binds”.
